Assay results: publication PMC3923683
Like-named read-outs stand apart in the source and are kept apart here. Results are given in words; binding and its absence hold for the method and conditions named. For some of these results: Binding seen in cells or lysates may run through a third protein. Some binding calls cover weakened binding; strength is not graded here. For some of these results: Where a sequence is shown, tags or fusion partners need not be part of it. Each block holds one molecule with its values, some of them ahead of it.

The chains behind the UniProt entries cited, without tags or fusion partners.
UniProt Q15154: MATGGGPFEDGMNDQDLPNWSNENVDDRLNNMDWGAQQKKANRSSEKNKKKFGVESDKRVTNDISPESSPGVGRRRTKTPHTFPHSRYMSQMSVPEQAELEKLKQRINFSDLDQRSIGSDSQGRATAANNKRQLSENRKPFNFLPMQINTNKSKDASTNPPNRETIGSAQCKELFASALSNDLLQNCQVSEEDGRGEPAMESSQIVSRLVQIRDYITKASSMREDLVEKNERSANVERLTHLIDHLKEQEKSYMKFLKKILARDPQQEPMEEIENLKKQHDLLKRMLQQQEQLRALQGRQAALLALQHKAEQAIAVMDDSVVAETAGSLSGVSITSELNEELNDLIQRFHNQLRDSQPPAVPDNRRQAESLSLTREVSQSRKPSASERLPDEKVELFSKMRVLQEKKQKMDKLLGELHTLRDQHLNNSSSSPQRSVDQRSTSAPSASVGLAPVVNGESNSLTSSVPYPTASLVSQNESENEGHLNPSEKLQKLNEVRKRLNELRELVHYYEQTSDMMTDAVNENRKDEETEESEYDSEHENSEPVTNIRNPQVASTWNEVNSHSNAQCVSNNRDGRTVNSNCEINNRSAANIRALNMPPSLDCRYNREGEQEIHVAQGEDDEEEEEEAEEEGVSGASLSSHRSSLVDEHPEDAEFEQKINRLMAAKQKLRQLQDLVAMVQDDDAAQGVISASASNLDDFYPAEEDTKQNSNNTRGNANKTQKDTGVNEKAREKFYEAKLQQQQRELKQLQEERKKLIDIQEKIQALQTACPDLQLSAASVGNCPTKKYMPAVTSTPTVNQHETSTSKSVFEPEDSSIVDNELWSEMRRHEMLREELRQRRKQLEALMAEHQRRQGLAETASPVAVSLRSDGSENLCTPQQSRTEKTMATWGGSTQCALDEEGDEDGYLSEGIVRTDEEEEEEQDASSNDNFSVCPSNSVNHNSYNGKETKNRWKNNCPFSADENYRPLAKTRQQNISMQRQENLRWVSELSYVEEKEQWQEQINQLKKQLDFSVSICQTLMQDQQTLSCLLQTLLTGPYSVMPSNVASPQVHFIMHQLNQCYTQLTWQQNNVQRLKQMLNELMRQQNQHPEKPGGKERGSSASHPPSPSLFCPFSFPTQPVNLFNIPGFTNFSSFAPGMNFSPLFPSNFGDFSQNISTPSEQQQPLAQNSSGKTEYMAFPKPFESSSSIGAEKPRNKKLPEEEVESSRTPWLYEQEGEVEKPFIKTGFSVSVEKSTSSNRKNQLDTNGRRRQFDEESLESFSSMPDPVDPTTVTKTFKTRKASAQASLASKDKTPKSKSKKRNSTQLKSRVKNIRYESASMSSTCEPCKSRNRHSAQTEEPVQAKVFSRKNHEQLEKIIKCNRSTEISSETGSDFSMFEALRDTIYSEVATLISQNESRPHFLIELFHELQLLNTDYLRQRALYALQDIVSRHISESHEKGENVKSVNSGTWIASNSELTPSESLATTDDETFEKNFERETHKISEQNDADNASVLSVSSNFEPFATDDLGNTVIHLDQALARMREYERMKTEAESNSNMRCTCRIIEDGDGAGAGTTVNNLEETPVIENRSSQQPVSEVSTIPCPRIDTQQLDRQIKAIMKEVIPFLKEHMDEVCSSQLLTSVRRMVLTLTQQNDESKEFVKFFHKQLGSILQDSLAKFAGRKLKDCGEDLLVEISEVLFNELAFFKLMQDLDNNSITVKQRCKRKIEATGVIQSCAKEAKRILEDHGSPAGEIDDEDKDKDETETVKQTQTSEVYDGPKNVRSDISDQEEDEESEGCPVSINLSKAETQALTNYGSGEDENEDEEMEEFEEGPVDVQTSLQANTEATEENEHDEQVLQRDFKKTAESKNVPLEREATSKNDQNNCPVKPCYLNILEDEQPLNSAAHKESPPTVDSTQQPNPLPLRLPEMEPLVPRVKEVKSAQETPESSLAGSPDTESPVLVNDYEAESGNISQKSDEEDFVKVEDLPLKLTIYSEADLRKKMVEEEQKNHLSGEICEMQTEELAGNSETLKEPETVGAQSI
UniProt O15078: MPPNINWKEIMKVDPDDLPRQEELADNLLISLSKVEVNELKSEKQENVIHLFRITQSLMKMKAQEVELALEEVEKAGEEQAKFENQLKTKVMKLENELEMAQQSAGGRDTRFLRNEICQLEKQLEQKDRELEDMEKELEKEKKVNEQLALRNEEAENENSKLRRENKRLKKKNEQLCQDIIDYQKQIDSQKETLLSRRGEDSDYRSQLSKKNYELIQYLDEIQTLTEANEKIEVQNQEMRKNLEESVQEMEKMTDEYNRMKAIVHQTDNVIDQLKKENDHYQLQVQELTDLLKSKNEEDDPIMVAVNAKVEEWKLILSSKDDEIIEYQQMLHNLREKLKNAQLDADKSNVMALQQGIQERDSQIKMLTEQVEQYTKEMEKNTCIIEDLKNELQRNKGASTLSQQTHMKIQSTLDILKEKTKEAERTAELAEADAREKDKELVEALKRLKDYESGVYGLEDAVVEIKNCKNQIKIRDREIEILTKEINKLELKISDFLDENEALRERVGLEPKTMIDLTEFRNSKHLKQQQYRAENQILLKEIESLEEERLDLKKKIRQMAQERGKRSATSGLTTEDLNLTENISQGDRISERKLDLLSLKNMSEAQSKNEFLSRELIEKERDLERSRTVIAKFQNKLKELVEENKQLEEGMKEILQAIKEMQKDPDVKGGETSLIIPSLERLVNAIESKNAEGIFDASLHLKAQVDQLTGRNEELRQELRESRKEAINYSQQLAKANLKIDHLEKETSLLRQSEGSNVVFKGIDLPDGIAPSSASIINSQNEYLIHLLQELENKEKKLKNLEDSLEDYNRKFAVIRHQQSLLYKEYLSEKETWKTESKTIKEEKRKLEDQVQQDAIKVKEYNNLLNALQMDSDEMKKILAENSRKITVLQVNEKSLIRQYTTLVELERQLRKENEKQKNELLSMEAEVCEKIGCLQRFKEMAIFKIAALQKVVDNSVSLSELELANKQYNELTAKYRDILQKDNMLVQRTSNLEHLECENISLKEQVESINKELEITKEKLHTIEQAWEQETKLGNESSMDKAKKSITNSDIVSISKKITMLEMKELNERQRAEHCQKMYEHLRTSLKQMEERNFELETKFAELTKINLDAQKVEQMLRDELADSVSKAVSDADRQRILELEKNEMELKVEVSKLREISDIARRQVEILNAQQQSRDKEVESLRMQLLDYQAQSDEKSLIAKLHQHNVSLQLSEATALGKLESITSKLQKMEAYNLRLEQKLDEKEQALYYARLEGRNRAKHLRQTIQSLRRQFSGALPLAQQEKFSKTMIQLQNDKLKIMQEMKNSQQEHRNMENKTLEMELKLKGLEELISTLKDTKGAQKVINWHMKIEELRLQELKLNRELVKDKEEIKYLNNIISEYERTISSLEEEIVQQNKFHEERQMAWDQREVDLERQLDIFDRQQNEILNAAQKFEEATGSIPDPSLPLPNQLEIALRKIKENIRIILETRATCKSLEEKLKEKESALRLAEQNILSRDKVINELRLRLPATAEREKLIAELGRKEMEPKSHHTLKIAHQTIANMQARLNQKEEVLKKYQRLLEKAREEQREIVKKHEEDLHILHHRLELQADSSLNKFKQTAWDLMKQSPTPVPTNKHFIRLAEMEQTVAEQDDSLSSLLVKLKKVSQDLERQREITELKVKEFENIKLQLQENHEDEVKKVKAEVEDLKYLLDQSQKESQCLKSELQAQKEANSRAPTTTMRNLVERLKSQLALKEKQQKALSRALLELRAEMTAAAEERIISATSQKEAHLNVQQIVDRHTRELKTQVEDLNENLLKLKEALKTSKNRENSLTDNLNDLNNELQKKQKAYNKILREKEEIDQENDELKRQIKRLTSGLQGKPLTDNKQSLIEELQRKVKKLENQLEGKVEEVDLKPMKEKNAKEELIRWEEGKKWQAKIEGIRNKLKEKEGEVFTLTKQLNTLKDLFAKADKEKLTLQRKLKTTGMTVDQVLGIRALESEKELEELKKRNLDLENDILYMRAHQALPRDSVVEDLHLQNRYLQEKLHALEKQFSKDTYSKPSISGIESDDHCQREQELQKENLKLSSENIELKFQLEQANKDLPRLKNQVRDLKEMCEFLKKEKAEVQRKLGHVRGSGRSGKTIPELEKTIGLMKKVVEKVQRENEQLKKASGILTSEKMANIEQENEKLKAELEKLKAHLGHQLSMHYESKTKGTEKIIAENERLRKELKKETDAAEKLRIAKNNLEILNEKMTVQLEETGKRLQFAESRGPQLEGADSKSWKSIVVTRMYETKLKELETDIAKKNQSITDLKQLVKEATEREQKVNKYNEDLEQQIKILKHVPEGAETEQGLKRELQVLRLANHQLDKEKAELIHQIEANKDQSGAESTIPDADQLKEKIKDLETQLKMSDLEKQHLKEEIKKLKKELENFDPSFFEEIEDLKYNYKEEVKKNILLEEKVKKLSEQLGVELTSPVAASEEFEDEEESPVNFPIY

Key:
[1] = target: T1, BBS4, endogenous in 293T cells (human (endogenous in 293T)) (UniProt Q96RK4); experiment: co-sedimentation; 293T cell lysates (control, AZI1 or PCM1 siRNA) separated by 10-40% sucrose gradient ultracentrifugation; fractions 7-19 immunoblotted for BBS proteins, AZI1 and PCM1
T1 sequence: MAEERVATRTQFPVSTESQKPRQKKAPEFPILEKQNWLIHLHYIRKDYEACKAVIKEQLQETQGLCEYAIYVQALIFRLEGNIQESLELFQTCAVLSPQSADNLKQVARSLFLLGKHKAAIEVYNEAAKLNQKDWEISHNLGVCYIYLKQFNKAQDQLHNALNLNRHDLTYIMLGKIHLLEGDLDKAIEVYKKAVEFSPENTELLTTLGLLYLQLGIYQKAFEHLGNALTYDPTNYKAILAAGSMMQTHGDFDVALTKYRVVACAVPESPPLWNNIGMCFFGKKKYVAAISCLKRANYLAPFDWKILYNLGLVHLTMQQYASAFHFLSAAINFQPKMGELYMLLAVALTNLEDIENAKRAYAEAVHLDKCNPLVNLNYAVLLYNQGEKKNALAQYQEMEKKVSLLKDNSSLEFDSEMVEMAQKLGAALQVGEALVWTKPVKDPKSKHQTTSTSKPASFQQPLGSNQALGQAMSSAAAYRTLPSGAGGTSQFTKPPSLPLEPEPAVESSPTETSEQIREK

[2] = target: T2, FLAG and S tagged BBS4, transiently transfected (UniProt Q96RK4); experiment: co-IP; 293T cells transiently transfected with individual FLAG and S tagged BBSome subunits; FLAG agarose beads; immunoblot with AZI1 and PCM1 antibody
T2 sequence: T1 sequence

[3] = target: T3, FLAG and S tagged AZI1, stably expressed in 293T cells (UniProt Q9UPN4); experiment: co-IP; 293T cells stably expressing FLAG and S tagged AZI1 (parental cells as negative control); FLAG agarose beads; input and precipitate Western blotted
T3 sequence: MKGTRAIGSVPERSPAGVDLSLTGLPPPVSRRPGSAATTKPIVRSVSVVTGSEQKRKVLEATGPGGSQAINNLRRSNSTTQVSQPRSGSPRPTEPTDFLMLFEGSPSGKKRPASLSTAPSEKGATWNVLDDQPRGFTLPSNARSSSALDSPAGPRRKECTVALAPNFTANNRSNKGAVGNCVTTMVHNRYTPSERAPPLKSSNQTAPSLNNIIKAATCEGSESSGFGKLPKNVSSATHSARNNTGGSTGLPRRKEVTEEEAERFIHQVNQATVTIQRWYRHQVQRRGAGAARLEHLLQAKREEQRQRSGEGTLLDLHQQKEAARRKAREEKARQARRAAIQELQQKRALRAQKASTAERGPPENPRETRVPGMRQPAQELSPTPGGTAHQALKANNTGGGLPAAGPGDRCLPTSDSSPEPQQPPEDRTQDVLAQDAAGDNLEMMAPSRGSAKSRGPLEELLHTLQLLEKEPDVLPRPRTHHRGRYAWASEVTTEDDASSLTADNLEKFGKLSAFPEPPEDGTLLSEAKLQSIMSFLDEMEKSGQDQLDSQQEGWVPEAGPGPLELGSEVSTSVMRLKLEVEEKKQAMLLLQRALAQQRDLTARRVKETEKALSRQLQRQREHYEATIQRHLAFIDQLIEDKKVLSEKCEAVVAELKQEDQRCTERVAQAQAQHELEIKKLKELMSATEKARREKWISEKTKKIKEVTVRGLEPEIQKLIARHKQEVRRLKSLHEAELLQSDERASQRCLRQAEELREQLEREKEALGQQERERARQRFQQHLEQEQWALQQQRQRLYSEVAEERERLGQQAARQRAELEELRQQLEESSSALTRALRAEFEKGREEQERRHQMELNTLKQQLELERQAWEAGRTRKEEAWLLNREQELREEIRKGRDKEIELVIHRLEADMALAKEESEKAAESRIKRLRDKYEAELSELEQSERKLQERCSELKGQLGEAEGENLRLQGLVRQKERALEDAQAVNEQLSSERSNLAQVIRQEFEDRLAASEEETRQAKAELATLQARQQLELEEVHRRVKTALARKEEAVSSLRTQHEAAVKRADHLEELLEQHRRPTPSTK

[4] = target: T4, LAP (localization and purification) tagged human BBS4 (human) (UniProt Q96RK4); experiment: tandem affinity purification (TAP); tissue lysates from LAP-BBS4 transgenic mice; how the co-purified proteins were detected is not stated
T4 sequence: T1 sequence

[5] = target: T5, FLAG and S tagged AZI1, stably expressed in 293T cells, Q9UPN4; experiment: co-IP; 293T cells stably expressing FLAG and S tagged AZI1 (parental cells as negative control); FLAG agarose beads; input and precipitate Western blotted; conditions: remark: other sources report otherwise
T5 chain: T3 sequence

[6] = target: T2, FLAG and S tagged BBS4, transiently transfected; experiment: co-IP; 293T cells transiently transfected with individual FLAG and S tagged BBSome subunits; FLAG agarose beads; immunoblot with AZI1 and PCM1 antibody; remark: listed apart in the source
[7] = target: T6, FLAG-BBS4, stably expressed in 293T cells (UniProt Q96RK4); experiment: co-IP; 293T cells stably expressing FLAG tagged BBS4, 5, 8 or 9; FLAG agarose beads; immunoblot with AZI1 antibody
T6 sequence: T1 sequence

B2: BBS4, endogenous in 293T cells (protein, UniProt Q96RK4 1-519)
chain: T1 sequence
binding [3]: binds

B3: AZI1, endogenous in 293T cells, Q9UPN4 1-1083 (protein)
chain: T3 sequence
binding [5]: binds

B4: AZI1, endogenous in 293T cells (protein, UniProt Q9UPN4 1-1083)
chain: T3 sequence
binding [1]: binds
binding [6]: binds
binding [7]: binds

The remaining lines, values ahead:

binding [1]: binds
binding [2]: binds
binding [3]: binds
Molecule: PCM1, endogenous in 293T cells (from UniProt Q15154 1-2024)

binding [3]: binds
Molecule: CEP290, endogenous in 293T cells (from UniProt O15078 1-2479)

binding [4]: binds
B1: Lztfl1 (protein, UniProt Q9JHQ5 1-299)
chain: MAELGLNEHHQNEVINYMRFARSKRGLRLKTVDSCFQDLKDSRLVEETFTIDEVSEVLNGLQAVVHSEVESELINTAYTNVLLLRQLFSQAEKWYLKLQTDISELENRELLEQVAEFEKAEFVSSSKKPIIDITKPKLVPINEGGTTELLNKEILRLQQENEKLKSRLKTIEIQAVNALDEKSKLERVLQDLQLDQENQQDLLKAQDLDDLENTVATLRSEFQKTLNDKTENQKSLEENLAAAKHDLLRVQEQLSMAEKELEKKFQQTAAYRNMKEILTKKNDQIKDLRKRLAKYESED
